# According to the supplement of paper PMC8728848:
# The list shows a part of the results.
# How the values were obtained:
# Assay in all cases: glycan array binding signal (z-score within array); higher = stronger binding
# Details in all cases: glycan notation: IUPAC condensed, linker removed
# [1] = target: GalNAc(b1-4)GlcNAc(b1-2)Man
# How it was run: (§1)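 Glycan array data were curated from 3228 arrays in the Consortium for Functional Glycomics database and kept only where the protein sequence was available. Glycan names were converted to IUPAC-condensed notation, and columns mapping to the same glycan were averaged. The binding signal is a within-array Z-score, averaged across arrays of the same protein sequence at different concentrations or buffers and across linkers. Negative Z-scores can be read as non-binding.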
# [2] = target: GalNAc(b1-4)GlcNAc(b1-2)Man(a1-3)[GalNAc(b1-4)GlcNAc(b1-2)Man(a1-6)]Man(b1-4)GlcNAc(b1-4)GlcNAc
# How it was run: as §1
# [3] = target: GalNAc(b1-4)GlcNAc(b1-3)GalNAc(b1-4)GlcNAc
# How it was run: as §1
# GalNAc(b1-4)GlcNAc6S = target: GalNAc(b1-4)GlcNAc6S
# How it was run: as §1
# GalNAc(b1-6)GalNAc = target: GalNAc(b1-6)GalNAc
# How it was run: as §1
# GalNAc3S(b1-4)GlcNAc = target: GalNAc3S(b1-4)GlcNAc
# How it was run: as §1
# GalNAc3S(b1-4)GlcNAc3S = target: GalNAc3S(b1-4)GlcNAc3S
# How it was run: as §1
# [4] = target: GalNAc3S(b1-4)[Fuc(a1-3)]GlcNAc
# How it was run: as §1
# GalNAc4S6S(b1-4)GlcNAc = target: GalNAc4S6S(b1-4)GlcNAc
# How it was run: as §1
# GalNAc6S(b1-4)GlcNAc = target: GalNAc6S(b1-4)GlcNAc
# How it was run: as §1
# Glc(a1-4)Glc = target: Glc(a1-4)Glc
# How it was run: as §1
# [5] = target: Glc(a1-4)Glc(a1-4)Glc(a1-4)Glc
# How it was run: as §1
# Glc(a1-6)Glc(a1-6)Glc = target: Glc(a1-6)Glc(a1-6)Glc
# How it was run: as §1
# [6] = target: Glc(a1-6)Glc(a1-6)Glc(a1-6)Glc
# How it was run: as §1
# Glc(b1-4)Glc = target: Glc(b1-4)Glc
# How it was run: as §1
# Glc(b1-6)Glc = target: Glc(b1-6)Glc
# How it was run: as §1
# GlcA(b1-3)Gal = target: GlcA(b1-3)Gal
# How it was run: as §1
# GlcA(b1-3)GlcNAc = target: GlcA(b1-3)GlcNAc
# How it was run: as §1
# GlcA(b1-6)Gal = target: GlcA(b1-6)Gal
# How it was run: as §1
# [7] = target: GlcA3S(b1-3)Gal(b1-4)GlcNAc(b1-2)Man
# How it was run: as §1
# [8] = target: GlcA3S(b1-3)Gal(b1-4)GlcNAc(b1-3)Gal(b1-4)Glc
# How it was run: as §1
# [9] = target: GlcNAc(a1-3)Gal(b1-4)GlcNAc
# How it was run: as §1
# [10] = target: GlcNAc(a1-4)Gal(b1-3)GlcNAc
# How it was run: as §1
# [11] = target: GlcNAc(a1-4)Gal(b1-4)GalNAc
# How it was run: as §1
# [12] = target: GlcNAc(a1-4)Gal(b1-4)GlcNAc
# How it was run: as §1
# [13] = target: GlcNAc(a1-4)Gal(b1-4)GlcNAc(b1-3)Gal(b1-4)Glc
# How it was run: as §1
# [14] = target: GlcNAc(a1-4)Gal(b1-4)GlcNAc(b1-3)Gal(b1-4)GlcNAc
# How it was run: as §1
# [15] = target: GlcNAc(a1-4)Gal(b1-4)GlcNAc(b1-3)Gal(b1-4)GlcNAc(b1-3)Gal(b1-4)GlcNAc
# How it was run: as §1
# [16] = target: GlcNAc(a1-4)Gal(b1-4)GlcNAc(b1-3)Gal(b1-4)[Fuc(a1-3)]GlcNAc(b1-3)Gal(b1-4)[Fuc(a1-3)]GlcNAc
# How it was run: as §1
# [17] = target: GlcNAc(a1-6)Gal(b1-4)GlcNAc
# How it was run: as §1
binder,measurement,setting,value
PX14343F-bfa-562-20-562 (Bacteroides fragilis) (protein) CDDFLDSFPQDTVTNENFWKSKEDADKVLVDIYASLLPKDAIFFDEAMSDNAYLVWDWWGGAQQVANGSYTTSGEIPTNRWNGSYEVIRKCWFLLEGIEKIEDISEQDKNKIIGETYFMLAYNYYVLTSYFGDVPLVTKTLAIPESKQLVRTPKAEVVDYAINKLKEAAVMLEGLSQEKGRVTADACRFLIARMYLYNGDYSNVLETVKLLEGKYQLYREGDTPYEDLFSGVAENSCEVILSVVCDKRVGEIYTSHGGNGIMLLKGITGEDPYRGVTPSGSLVDAYPMADGRLIHEAGSSYDPKKPYEGRDPRFYQSIVYPTGQIKYLDVETGTVKERLYDPEDPTTVPEHQYNYSQPSATGYMWNKYIDYSVYAMNSVWDCTNDIIVFRYADVLLMKAEALLQTKGESAKEEVCNLIDQLRDRCSCGRVHRENYNSKDELMELLKNERRIELANEGLRYMDLIRWKDAEKNTIVTGVGLTGQMYGAYMRKDGVGKDDKTVDVDNTPRRYIETRYFNASKGYLFPIPQKERDLNPNLTQNPNW,glycan array binding signal (z-score),[1],0.078
same,glycan array binding signal (z-score),[2],2.1
same,glycan array binding signal (z-score),[3],0.152
same,glycan array binding signal (z-score),GalNAc(b1-4)GlcNAc6S,-0.295
same,glycan array binding signal (z-score),GalNAc(b1-6)GalNAc,-0.467
same,glycan array binding signal (z-score),GalNAc3S(b1-4)GlcNAc,0.104
same,glycan array binding signal (z-score),GalNAc3S(b1-4)GlcNAc3S,0.259
same,glycan array binding signal (z-score),[4],-0.153
same,glycan array binding signal (z-score),GalNAc4S6S(b1-4)GlcNAc,-0.684
same,glycan array binding signal (z-score),GalNAc6S(b1-4)GlcNAc,-0.157
same,glycan array binding signal (z-score),Glc(a1-4)Glc,0.041
same,glycan array binding signal (z-score),[5],-0.074
same,glycan array binding signal (z-score),Glc(a1-6)Glc(a1-6)Glc,-0.43
same,glycan array binding signal (z-score),[6],-1.14
same,glycan array binding signal (z-score),Glc(b1-4)Glc,0.101
same,glycan array binding signal (z-score),Glc(b1-6)Glc,0.292
same,glycan array binding signal (z-score),GlcA(b1-3)Gal,-0.822
same,glycan array binding signal (z-score),GlcA(b1-3)GlcNAc,0.48
same,glycan array binding signal (z-score),GlcA(b1-6)Gal,0.748
same,glycan array binding signal (z-score),[7],-0.132
same,glycan array binding signal (z-score),[8],-1.14
same,glycan array binding signal (z-score),[9],-1.06
same,glycan array binding signal (z-score),[10],-0.218
same,glycan array binding signal (z-score),[11],-0.216
same,glycan array binding signal (z-score),[12],-0.034
same,glycan array binding signal (z-score),[13],-0.724
same,glycan array binding signal (z-score),[14],0.162
same,glycan array binding signal (z-score),[15],-0.864
same,glycan array binding signal (z-score),[16],0.865
same,glycan array binding signal (z-score),[17],-0.455
